The other results are listed elsewhere or left out.

The chains behind the UniProt entries cited, without tags or fusion partners. Where a name states a change or a piece, a line headed by the entry shows the natural chain unless it says otherwise.
UniProt P55809: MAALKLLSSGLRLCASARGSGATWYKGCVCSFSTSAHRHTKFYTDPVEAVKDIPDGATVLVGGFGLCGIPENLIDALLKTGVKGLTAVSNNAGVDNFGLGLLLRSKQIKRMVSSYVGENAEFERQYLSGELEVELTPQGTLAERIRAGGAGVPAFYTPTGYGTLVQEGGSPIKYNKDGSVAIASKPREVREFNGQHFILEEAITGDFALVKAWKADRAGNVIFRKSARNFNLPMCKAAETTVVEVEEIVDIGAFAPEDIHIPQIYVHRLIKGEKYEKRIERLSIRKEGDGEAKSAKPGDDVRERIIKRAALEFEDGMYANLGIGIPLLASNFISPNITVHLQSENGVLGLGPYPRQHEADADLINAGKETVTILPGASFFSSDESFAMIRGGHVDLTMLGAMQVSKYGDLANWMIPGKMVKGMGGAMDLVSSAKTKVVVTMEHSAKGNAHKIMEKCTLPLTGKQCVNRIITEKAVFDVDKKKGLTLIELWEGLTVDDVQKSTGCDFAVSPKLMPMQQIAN
UniProt Q5TFE4: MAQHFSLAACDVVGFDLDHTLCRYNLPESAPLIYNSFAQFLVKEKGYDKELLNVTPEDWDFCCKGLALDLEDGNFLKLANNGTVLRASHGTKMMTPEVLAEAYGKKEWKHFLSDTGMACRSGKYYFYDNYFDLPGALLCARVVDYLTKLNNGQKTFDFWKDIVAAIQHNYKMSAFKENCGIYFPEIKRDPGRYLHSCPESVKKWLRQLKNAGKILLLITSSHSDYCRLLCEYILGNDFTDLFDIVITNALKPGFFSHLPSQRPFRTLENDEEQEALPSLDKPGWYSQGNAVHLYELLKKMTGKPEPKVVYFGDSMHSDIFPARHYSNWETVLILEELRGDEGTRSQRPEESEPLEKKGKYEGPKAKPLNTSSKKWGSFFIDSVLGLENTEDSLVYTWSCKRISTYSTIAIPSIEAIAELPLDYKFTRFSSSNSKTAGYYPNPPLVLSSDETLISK
UniProt Q8N1F7: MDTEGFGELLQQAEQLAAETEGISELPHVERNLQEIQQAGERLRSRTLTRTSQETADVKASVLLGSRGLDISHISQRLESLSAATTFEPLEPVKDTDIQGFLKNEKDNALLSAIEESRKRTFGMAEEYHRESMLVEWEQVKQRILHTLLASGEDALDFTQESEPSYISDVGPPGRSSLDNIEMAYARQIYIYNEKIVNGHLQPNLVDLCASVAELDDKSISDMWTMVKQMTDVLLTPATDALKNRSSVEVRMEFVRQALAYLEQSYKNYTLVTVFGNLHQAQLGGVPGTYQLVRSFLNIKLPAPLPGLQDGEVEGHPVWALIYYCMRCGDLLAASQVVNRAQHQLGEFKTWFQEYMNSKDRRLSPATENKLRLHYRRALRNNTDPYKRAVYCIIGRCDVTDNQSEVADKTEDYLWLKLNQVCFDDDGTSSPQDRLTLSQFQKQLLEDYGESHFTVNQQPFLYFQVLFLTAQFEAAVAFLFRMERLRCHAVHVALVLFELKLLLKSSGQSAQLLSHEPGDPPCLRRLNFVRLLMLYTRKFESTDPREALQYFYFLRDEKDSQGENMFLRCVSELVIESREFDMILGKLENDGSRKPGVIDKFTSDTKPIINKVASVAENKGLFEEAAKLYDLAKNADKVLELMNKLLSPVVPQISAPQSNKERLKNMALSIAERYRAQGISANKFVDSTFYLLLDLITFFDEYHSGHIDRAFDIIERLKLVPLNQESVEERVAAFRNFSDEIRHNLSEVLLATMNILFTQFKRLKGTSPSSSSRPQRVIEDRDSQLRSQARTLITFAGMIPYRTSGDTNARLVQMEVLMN
UniProt O14841: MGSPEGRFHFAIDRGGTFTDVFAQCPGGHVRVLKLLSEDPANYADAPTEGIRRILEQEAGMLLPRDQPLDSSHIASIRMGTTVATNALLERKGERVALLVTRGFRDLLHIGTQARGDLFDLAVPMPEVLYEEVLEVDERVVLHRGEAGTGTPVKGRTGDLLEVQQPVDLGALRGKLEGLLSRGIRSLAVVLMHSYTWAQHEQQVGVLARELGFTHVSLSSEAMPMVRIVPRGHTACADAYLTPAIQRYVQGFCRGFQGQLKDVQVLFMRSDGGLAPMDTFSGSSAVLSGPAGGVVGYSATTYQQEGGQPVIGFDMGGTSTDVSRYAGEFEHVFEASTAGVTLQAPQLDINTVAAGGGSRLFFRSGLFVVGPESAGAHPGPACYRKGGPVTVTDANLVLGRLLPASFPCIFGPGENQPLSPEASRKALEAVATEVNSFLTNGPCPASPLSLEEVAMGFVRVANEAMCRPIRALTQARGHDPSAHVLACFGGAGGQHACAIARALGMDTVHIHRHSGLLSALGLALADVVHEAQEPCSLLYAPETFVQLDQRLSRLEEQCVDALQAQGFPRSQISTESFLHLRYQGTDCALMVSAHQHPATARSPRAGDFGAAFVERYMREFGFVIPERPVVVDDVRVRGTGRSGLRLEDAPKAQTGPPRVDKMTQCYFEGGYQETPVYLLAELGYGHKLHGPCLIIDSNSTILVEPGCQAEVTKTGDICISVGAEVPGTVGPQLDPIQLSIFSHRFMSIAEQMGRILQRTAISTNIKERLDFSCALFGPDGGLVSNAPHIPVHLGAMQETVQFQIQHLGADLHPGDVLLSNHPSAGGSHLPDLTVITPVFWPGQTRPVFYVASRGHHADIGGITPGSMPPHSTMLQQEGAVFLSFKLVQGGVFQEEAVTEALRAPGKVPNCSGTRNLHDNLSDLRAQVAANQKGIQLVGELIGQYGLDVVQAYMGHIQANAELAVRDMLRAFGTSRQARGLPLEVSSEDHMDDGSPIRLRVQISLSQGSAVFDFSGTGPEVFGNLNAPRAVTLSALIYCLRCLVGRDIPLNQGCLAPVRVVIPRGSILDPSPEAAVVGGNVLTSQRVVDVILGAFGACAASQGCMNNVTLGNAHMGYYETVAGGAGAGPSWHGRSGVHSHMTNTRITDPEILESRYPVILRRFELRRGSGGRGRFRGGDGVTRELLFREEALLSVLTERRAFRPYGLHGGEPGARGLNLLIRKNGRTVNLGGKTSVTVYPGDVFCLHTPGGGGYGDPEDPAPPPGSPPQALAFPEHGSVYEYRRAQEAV
UniProt Q9NZJ9: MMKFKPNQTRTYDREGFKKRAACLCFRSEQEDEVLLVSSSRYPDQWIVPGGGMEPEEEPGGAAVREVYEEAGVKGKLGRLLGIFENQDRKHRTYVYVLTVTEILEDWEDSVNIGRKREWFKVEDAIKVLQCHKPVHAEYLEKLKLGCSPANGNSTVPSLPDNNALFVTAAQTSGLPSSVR
UniProt Q8TCD5: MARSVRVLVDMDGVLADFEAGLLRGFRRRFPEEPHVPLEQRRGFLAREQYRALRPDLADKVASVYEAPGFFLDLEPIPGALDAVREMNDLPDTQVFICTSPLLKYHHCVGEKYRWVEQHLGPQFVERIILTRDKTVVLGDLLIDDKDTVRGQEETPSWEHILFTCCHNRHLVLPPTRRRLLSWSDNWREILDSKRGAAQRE
UniProt Q13438: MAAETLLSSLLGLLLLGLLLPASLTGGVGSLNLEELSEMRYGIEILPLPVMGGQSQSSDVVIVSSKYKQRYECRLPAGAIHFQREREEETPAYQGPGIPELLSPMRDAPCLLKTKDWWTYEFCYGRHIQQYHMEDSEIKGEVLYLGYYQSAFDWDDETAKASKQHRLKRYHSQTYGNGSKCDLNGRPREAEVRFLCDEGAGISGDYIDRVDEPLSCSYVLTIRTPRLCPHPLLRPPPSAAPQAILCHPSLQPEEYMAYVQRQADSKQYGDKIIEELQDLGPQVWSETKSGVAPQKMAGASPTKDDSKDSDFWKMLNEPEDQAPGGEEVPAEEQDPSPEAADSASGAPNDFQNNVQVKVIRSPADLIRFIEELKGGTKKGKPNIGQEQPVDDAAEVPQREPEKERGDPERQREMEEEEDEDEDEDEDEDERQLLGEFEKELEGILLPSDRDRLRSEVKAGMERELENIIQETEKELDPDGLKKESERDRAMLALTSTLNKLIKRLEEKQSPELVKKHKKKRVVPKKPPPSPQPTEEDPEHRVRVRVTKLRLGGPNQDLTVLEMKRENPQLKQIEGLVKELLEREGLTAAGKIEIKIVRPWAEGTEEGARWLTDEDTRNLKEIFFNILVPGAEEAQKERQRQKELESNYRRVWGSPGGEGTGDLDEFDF
UniProt P53384: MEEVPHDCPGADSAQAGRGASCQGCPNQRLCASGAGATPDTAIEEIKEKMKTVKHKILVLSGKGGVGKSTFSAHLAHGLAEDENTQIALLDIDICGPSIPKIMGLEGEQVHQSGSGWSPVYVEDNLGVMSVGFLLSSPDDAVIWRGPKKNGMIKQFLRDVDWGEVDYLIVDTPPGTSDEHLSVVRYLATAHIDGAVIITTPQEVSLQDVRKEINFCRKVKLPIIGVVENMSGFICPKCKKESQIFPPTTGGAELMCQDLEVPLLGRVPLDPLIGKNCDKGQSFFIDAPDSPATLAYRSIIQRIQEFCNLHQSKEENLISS
UniProt Q9H1E3: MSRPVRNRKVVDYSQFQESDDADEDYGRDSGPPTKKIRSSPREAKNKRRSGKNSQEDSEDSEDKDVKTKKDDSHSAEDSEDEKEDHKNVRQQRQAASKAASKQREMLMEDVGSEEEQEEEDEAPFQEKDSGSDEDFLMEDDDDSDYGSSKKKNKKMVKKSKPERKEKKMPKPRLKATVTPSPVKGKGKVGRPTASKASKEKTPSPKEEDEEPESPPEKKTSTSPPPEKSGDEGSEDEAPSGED
UniProt Q9BRJ7: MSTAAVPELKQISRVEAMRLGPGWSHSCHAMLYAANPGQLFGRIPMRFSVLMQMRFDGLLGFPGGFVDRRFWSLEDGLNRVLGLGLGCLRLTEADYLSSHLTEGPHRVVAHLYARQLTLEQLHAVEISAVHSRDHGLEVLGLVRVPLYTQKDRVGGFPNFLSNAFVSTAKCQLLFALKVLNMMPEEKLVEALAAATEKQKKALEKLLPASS
UniProt P00480: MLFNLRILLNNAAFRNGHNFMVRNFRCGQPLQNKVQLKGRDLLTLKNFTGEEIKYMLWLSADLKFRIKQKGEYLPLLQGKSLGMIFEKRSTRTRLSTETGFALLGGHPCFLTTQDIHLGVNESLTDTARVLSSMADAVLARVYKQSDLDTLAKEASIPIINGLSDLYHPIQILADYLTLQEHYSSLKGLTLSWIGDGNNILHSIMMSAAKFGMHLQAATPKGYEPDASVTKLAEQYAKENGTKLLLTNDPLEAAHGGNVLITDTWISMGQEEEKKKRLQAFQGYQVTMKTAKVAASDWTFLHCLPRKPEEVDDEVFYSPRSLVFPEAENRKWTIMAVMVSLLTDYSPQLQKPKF
UniProt O95989: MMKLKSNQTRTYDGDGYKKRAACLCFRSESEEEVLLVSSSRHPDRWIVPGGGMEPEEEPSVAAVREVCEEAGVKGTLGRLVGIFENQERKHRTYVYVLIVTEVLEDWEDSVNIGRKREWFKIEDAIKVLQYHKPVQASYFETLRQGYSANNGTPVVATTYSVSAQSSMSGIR
UniProt Q8WUM0: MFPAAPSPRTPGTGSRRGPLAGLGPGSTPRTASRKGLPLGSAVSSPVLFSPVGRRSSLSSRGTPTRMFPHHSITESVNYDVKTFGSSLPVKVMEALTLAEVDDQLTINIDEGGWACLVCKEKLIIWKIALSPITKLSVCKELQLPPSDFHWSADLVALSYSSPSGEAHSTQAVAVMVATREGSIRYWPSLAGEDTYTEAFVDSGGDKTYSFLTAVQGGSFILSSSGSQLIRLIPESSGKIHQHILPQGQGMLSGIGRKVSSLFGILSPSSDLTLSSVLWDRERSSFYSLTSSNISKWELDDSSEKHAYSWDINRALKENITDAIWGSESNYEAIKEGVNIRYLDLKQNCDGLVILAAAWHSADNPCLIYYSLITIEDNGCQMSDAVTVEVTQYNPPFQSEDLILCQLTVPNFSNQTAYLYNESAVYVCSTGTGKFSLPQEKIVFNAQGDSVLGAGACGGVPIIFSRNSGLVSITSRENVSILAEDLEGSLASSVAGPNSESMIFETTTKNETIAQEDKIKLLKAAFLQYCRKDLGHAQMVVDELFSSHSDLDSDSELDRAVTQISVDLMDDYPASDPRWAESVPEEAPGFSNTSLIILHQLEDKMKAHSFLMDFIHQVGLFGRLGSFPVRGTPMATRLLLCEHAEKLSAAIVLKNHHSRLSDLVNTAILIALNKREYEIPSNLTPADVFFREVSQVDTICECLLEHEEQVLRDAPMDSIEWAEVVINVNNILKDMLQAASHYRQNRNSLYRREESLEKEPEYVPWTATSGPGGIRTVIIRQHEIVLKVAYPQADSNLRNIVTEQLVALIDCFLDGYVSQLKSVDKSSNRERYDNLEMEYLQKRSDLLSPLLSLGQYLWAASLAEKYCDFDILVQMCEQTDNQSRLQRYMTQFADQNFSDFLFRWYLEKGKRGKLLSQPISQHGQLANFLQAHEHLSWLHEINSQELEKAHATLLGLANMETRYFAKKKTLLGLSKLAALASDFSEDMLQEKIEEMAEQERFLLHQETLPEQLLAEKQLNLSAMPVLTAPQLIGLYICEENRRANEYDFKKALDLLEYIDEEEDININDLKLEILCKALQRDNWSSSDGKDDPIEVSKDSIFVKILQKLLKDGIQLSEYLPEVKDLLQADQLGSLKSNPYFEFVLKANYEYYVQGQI

Compound in the first experiment: Cc1ccc(NC(=O)c2ccc(CN3CC[C@H](N(C)C)C3)c(C(F)(F)F)c2)cc1Nc1nccc(-c2cncnc2)n1 [bafetinib]
The experiment is described as follows: log2 fold change, soluble protein after heating vs DMSO (PISA); higher = thermal stabilisation; K562 cells, 10 uM, 30 min; active = over 0.2 and 3.5 SD of the protein, either way, in both replicates (recomputed). Summed up:
(§1)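 For each measurement, 10 μM compound was applied for 30 min to K562 cells at 2×10^6 cells/mL. Aliquots were heated for 3 min across 48°C-58°C, pooled, and extracted in PBS with 0.5% NP-40 at 4°C; the supernatant after 21,000xg for 90 min was soluble protein. This was quantified by TMTpro 16plex LC-MS/MS with channel sums equalised, and thermal stability was reported relative to control samples from duplicates, on a log2 fold-change scale.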
For OSBPL8 (UniProt Q9BZF1), the log2 fold change is inactive: 0.182.
Take OXCT1 (UniProt P55809): the log2 fold change is inactive: -0.028.
The same measure, in the same setting: with NUDT5 (UniProt Q9UKK9) the figure was inactive: -0.035; with NUP214 isoform 5 (UniProt P35658), inactive: 0.015.
The same measure, in the same setting: with NT5DC1 (UniProt Q5TFE4) the figure was inactive: 0.043.
Regarding NUSAP1 (UniProt Q9BXS6), the log2 fold change is inactive: 0.129.
Still for that read-out and setting: with NUB1 (UniProt Q9Y5A7) the figure was inactive: 0.047; with NT5C2 (UniProt P49902), inactive: -0.012.
The same measure, in the same setting: with NUP85 (UniProt Q9BW27) the figure was inactive: -0.088; with OGFOD1 (UniProt Q8N543), inactive: -0.042.
ORC3 isoform 2 (UniProt Q9UBD5): the log2 fold change was inactive: -0.032.
Consider NUP93 (UniProt Q8N1F7), for which the log2 fold change is inactive: -0.007.
With OTUD5 isoform 5 (UniProt Q96G74), the log2 fold change is inactive: -0.064.
In the case of OPLAH (UniProt O14841), the log2 fold change was inactive: -0.07.
Still for that read-out and setting: next, OIP5 (UniProt O43482): inactive: -0.085; NUDT4 (UniProt Q9NZJ9): inactive: -0.041.
Same read-out and setting: with NUDT21 (UniProt O43809) the figure was inactive: 0.074; with NT5C (UniProt Q8TCD5), inactive: -0.06.
On to OS9 (UniProt Q13438), for which the log2 fold change is inactive: -0.032.
Still for that read-out and setting: next, NUP155 (UniProt O75694): inactive: -0.005; NUP37 (UniProt Q8NFH4): inactive: -0.037.
The same measure, in the same setting: next, NUBP1 (UniProt P53384): inactive: 0.008; NUCKS1 (UniProt Q9H1E3): inactive: -0.114; NUDT16L1 (UniProt Q9BRJ7): inactive: -0.015.
Same read-out and setting: next, OTC (UniProt P00480): inactive: -0.053; NUDT3 (UniProt O95989): inactive: -0.056; NUDC (UniProt Q9Y266): inactive: -0.034.
With NUCB1 (UniProt Q02818), the log2 fold change is inactive: -0.057.
Still for that read-out and setting: with NUP42 (UniProt O15504) the figure was inactive: 0.191; with NUP133 (UniProt Q8WUM0), inactive: 0.017; with ODR4 (UniProt Q5SWX8), inactive: 0.034.
Still for that read-out and setting: next, NUBPL (UniProt Q8TB37): inactive: -0.076.

Compound in the next experiment: Cc1cccc(CC(=O)N2CCc3c2ccc(-c2cn(C)c4ncnc(N)c24)c3F)n1
The experiment is described as above. Put shortly:
as §1
OSBPL8 (UniProt Q9BZF1): the log2 fold change was inactive: 0.049.
On the same count and under the same terms, next, OXCT1 (UniProt P55809): inactive: 0.011; NUDT5 (UniProt Q9UKK9): inactive: -0.036; NUP214 isoform 5 (UniProt P35658): inactive: 0.049.
Still for that read-out and setting: next, NT5DC1 (UniProt Q5TFE4): inactive: 0.004; NUSAP1 (UniProt Q9BXS6): inactive: 0.002.
Still for that read-out and setting: with NUB1 (UniProt Q9Y5A7) the figure was inactive: 0.014; with NT5C2 (UniProt P49902), inactive: -0.038.
Regarding NUP85 (UniProt Q9BW27), the log2 fold change was inactive: 0.02.
The same measure, in the same setting: with OGFOD1 (UniProt Q8N543) the figure was inactive: -0.033; with ORC3 isoform 2 (UniProt Q9UBD5), inactive: 0.099.
Still for that read-out and setting: with NUP93 (UniProt Q8N1F7) the figure was inactive: 0.114; with OTUD5 isoform 5 (UniProt Q96G74), inactive: 0.044; with OPLAH (UniProt O14841), inactive: 0.015.
On the same count and under the same terms, next, OIP5 (UniProt O43482): inactive: -0.168; NUDT4 (UniProt Q9NZJ9): inactive: 0.035.
NUDT21 (UniProt O43809): the log2 fold change is inactive: -0.071.
The same measure, in the same setting: next, NT5C (UniProt Q8TCD5): inactive: 0.026; OS9 (UniProt Q13438): inactive: 0.012.
On the same count and under the same terms, next, NUP155 (UniProt O75694): inactive: 0.107; NUP37 (UniProt Q8NFH4): inactive: 0.036.
On the same count and under the same terms, with NUBP1 (UniProt P53384) the figure was inactive: -0.054; with NUCKS1 (UniProt Q9H1E3), inactive: -0.128.
In the case of NUDT16L1 (UniProt Q9BRJ7), the log2 fold change was inactive: -0.001.
The same measure, in the same setting: next, OTC (UniProt P00480): inactive: -0.158.
On the same count and under the same terms, next, NUDT3 (UniProt O95989): inactive: 0.015; NUDC (UniProt Q9Y266): inactive: 0.012.
On the same count and under the same terms, next, NUCB1 (UniProt Q02818): inactive: -0.029; NUP42 (UniProt O15504): inactive: -0.146.
On to NUP133 (UniProt Q8WUM0), for which the log2 fold change is inactive: 0.065.
Still for that read-out and setting: next, ODR4 (UniProt Q5SWX8): inactive: 0.035.
Same read-out and setting: with NUBPL (UniProt Q8TB37) the figure was inactive: -0.005.

Compound in another experiment: Cc1cn(-c2cc(NC(=O)c3ccc(C)c(Nc4nccc(-c5cccnc5)n4)c3)cc(C(F)(F)F)c2)cn1 [nilotinib]
The description is as above. Put shortly: as §1
With OSBPL8 (UniProt Q9BZF1), the log2 fold change was inactive: 0.295.
Same read-out and setting: with OXCT1 (UniProt P55809) the figure was inactive: 0.113; with NUDT5 (UniProt Q9UKK9), inactive: 0.039.
NUP214 isoform 5 (UniProt P35658): the log2 fold change was inactive: -0.032.
Still for that read-out and setting: next, NT5DC1 (UniProt Q5TFE4): inactive: 0.099; NUSAP1 (UniProt Q9BXS6): inactive: -0.127.
Still for that read-out and setting: with NUB1 (UniProt Q9Y5A7) the figure was inactive: -0.327.
Regarding NT5C2 (UniProt P49902), the log2 fold change was inactive: 0.048.
The same measure, in the same setting: with NUP85 (UniProt Q9BW27) the figure was inactive: -0.027; with OGFOD1 (UniProt Q8N543), inactive: -0.015.
On the same count and under the same terms, with ORC3 isoform 2 (UniProt Q9UBD5) the figure was inactive: -0.262; with NUP93 (UniProt Q8N1F7), inactive: -0.033; with OTUD5 isoform 5 (UniProt Q96G74), inactive: 0.02.
Still for that read-out and setting: with OPLAH (UniProt O14841) the figure was inactive: 0; with OIP5 (UniProt O43482), inactive: 0.078.
On to NUDT4 (UniProt Q9NZJ9), for which the log2 fold change was inactive: -0.082.
With NUDT21 (UniProt O43809), the log2 fold change is inactive: 0.033.
For the target NT5C (UniProt Q8TCD5), the log2 fold change was inactive: -0.01.
Still for that read-out and setting: with OS9 (UniProt Q13438) the figure was inactive: -0.041.
The same measure, in the same setting: next, NUP155 (UniProt O75694): inactive: -0.007.
With NUP37 (UniProt Q8NFH4), the log2 fold change was inactive: -0.003.
NUBP1 (UniProt P53384): the log2 fold change was inactive: -0.051.
The same measure, in the same setting: next, NUCKS1 (UniProt Q9H1E3): inactive: -0.028.
The same measure, in the same setting: with NUDT16L1 (UniProt Q9BRJ7) the figure was inactive: 0.008; with OTC (UniProt P00480), inactive: -0.313.
On the same count and under the same terms, next, NUDT3 (UniProt O95989): inactive: -0.035; NUDC (UniProt Q9Y266): inactive: -0.013.
On to NUCB1 (UniProt Q02818), for which the log2 fold change is inactive: 0.027.
In the case of NUP42 (UniProt O15504), the log2 fold change is inactive: -0.114.
On the same count and under the same terms, with NUP133 (UniProt Q8WUM0) the figure was inactive: 0.004; with ODR4 (UniProt Q5SWX8), inactive: -0.013.
Turning to NUBPL (UniProt Q8TB37), the log2 fold change is inactive: -0.034.

The record behind these values is the supplement of paper PMC10849652.
